Laboratory results as given in article PMC9504280.

Sequences of proteins named here, by UniProt entry; tags and fusion partners are left off. A change or cut given only in a name is not applied to a line headed by its entry. Residues count along the entry.
UniProt P11881: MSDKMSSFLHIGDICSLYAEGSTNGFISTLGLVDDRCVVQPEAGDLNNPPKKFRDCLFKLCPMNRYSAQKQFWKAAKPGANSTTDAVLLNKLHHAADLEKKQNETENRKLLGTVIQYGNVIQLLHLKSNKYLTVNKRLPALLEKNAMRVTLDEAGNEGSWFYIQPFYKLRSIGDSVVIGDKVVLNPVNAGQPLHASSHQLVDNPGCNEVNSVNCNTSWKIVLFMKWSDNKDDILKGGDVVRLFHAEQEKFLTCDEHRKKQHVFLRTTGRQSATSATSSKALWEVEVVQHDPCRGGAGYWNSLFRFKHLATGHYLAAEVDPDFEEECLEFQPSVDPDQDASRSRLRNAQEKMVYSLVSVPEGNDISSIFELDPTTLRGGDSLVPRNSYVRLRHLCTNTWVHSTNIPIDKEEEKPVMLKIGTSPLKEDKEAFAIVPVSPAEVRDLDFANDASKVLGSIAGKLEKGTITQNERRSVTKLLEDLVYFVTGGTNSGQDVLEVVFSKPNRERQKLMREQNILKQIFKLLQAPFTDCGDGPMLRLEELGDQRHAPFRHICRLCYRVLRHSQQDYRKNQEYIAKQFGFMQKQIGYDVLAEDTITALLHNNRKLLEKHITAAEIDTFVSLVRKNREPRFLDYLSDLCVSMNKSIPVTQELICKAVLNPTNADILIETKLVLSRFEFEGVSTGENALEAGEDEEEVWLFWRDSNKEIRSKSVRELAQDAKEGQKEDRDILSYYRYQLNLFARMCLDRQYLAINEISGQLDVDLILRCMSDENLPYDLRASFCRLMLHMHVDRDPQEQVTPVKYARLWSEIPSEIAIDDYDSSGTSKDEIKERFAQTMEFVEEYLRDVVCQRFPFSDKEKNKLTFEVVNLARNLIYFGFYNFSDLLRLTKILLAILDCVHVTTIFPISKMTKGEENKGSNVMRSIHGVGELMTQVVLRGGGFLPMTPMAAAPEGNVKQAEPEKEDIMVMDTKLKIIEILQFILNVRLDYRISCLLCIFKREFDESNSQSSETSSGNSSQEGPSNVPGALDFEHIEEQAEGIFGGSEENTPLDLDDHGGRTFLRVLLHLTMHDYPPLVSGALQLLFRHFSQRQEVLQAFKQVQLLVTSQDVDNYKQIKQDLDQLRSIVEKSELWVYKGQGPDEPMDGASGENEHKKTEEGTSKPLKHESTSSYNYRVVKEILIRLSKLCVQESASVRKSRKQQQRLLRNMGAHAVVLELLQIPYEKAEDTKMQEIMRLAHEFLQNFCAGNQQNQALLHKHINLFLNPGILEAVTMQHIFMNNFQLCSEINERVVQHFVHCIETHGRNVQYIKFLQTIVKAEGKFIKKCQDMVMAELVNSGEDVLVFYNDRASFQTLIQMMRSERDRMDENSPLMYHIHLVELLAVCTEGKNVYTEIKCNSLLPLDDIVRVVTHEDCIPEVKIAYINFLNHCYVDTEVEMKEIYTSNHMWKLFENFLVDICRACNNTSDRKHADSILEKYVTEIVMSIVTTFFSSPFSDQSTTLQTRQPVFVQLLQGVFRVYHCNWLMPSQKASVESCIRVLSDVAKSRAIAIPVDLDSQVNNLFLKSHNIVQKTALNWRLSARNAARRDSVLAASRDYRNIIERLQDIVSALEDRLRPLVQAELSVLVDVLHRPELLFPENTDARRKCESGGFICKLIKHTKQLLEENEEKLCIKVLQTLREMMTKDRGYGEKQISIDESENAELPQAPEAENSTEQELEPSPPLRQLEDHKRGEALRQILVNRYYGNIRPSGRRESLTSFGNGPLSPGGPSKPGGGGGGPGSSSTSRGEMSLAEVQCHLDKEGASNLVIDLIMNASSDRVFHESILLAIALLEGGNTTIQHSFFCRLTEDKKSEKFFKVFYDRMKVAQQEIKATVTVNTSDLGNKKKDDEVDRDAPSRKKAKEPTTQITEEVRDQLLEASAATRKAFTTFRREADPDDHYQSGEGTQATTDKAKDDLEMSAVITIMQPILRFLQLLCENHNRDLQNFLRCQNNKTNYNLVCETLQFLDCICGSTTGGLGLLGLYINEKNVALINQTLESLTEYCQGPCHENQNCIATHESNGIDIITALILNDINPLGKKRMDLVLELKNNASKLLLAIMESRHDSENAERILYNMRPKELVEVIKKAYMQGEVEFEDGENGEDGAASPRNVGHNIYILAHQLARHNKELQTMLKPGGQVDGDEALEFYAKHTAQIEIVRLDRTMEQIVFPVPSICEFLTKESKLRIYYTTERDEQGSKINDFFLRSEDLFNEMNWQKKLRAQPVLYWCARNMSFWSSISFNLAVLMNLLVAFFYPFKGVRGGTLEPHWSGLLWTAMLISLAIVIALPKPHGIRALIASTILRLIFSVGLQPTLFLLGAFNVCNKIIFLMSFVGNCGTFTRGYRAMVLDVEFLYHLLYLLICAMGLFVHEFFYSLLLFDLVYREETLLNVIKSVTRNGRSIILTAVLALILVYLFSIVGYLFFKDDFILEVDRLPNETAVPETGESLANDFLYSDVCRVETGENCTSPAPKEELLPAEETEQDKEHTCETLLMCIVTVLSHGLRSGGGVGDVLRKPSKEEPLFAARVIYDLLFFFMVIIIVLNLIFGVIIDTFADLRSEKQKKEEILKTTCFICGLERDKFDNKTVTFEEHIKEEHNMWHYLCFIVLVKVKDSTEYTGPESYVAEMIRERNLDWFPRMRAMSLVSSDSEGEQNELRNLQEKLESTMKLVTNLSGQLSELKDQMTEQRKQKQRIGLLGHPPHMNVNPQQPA
UniProt P38647, residues 47-679: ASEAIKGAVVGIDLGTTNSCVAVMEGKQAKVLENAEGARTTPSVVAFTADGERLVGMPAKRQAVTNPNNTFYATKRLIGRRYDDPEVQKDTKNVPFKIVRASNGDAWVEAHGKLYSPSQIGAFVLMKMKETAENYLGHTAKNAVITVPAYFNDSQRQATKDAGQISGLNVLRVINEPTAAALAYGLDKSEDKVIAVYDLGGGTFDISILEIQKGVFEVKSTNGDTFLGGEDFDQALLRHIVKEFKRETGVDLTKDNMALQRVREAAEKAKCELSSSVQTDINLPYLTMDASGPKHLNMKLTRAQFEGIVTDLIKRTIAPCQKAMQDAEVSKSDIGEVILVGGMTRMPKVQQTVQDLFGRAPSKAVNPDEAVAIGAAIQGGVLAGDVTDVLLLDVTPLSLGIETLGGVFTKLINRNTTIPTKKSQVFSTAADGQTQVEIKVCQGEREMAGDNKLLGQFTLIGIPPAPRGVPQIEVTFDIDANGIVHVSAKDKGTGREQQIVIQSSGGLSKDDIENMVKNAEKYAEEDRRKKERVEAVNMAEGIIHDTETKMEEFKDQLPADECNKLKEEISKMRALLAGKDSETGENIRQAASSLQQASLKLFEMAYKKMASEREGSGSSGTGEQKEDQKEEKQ
UniProt Q60932: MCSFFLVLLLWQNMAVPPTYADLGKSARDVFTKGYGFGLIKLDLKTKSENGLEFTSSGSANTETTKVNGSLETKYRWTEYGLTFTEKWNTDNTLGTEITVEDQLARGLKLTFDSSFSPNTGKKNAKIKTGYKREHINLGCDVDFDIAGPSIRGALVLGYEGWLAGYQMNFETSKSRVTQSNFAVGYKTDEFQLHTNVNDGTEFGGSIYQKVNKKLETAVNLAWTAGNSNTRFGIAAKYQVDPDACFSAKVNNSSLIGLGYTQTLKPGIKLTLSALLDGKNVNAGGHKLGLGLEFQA

What was measured:
[1] = target: inositol 1,4,5-triphosphate receptor 1 (IP3R1) (mouse (endogenous in 3T3-L1)) (UniProt P11881); experiment: co-IP; anti-IP3R1 antibody on 1 mg total lysate of 3T3-L1 cells before (day 0) and 7 days after adipogenic differentiation, 4°C overnight, Mag Sepharose Xtra beads, washed with TBST (50 mM Tris-HCl, 150 mM NaCl, 0.1% Tween-20, pH 7.4), eluted with 2% SDS; Western blot for GRP75 and VDAC1
[2] = target: glucose-regulated protein 75 (GRP75) (mouse (endogenous in 3T3-L1)) (UniProt P38647); experiment: co-IP; reciprocal: anti-GRP75 antibody on 1 mg total lysate of 3T3-L1 cells before (day 0) and 7 days after adipogenic differentiation, 4°C overnight, Mag Sepharose Xtra beads, washed with TBST (50 mM Tris-HCl, 150 mM NaCl, 0.1% Tween-20, pH 7.4), eluted with 2% SDS; Western blot for IP3R1 and …

## voltage-dependent anion channel 1 (VDAC1) (from UniProt Q60932)
[1]
  binding: binds
[2]
  binding: binds

No constants are given. Whether binding was seen depends on the method and setting. Binding seen in cells or lysates may run through a third protein. Binding calls can cover weak binding; strength is not graded here.
